The experiment deals with ankyrin repeat and KH domain containing 1 (ANKHD1) (human (endogenous in HCT116)) (UniProt Q8IWZ3). In words: co-IP; HCT116 cell lysate in RIPA buffer; antibody overnight at 4 °C, protein A/G agarose beads 3 h at 4 °C, three washes with ice-cold RIPA buffer, Western blot. Background: A western blot detects proteins with antibodies after separation by electrophoresis.

Chains of the proteins cited; added tags and fusions are not shown.
UniProt Q8IWZ3: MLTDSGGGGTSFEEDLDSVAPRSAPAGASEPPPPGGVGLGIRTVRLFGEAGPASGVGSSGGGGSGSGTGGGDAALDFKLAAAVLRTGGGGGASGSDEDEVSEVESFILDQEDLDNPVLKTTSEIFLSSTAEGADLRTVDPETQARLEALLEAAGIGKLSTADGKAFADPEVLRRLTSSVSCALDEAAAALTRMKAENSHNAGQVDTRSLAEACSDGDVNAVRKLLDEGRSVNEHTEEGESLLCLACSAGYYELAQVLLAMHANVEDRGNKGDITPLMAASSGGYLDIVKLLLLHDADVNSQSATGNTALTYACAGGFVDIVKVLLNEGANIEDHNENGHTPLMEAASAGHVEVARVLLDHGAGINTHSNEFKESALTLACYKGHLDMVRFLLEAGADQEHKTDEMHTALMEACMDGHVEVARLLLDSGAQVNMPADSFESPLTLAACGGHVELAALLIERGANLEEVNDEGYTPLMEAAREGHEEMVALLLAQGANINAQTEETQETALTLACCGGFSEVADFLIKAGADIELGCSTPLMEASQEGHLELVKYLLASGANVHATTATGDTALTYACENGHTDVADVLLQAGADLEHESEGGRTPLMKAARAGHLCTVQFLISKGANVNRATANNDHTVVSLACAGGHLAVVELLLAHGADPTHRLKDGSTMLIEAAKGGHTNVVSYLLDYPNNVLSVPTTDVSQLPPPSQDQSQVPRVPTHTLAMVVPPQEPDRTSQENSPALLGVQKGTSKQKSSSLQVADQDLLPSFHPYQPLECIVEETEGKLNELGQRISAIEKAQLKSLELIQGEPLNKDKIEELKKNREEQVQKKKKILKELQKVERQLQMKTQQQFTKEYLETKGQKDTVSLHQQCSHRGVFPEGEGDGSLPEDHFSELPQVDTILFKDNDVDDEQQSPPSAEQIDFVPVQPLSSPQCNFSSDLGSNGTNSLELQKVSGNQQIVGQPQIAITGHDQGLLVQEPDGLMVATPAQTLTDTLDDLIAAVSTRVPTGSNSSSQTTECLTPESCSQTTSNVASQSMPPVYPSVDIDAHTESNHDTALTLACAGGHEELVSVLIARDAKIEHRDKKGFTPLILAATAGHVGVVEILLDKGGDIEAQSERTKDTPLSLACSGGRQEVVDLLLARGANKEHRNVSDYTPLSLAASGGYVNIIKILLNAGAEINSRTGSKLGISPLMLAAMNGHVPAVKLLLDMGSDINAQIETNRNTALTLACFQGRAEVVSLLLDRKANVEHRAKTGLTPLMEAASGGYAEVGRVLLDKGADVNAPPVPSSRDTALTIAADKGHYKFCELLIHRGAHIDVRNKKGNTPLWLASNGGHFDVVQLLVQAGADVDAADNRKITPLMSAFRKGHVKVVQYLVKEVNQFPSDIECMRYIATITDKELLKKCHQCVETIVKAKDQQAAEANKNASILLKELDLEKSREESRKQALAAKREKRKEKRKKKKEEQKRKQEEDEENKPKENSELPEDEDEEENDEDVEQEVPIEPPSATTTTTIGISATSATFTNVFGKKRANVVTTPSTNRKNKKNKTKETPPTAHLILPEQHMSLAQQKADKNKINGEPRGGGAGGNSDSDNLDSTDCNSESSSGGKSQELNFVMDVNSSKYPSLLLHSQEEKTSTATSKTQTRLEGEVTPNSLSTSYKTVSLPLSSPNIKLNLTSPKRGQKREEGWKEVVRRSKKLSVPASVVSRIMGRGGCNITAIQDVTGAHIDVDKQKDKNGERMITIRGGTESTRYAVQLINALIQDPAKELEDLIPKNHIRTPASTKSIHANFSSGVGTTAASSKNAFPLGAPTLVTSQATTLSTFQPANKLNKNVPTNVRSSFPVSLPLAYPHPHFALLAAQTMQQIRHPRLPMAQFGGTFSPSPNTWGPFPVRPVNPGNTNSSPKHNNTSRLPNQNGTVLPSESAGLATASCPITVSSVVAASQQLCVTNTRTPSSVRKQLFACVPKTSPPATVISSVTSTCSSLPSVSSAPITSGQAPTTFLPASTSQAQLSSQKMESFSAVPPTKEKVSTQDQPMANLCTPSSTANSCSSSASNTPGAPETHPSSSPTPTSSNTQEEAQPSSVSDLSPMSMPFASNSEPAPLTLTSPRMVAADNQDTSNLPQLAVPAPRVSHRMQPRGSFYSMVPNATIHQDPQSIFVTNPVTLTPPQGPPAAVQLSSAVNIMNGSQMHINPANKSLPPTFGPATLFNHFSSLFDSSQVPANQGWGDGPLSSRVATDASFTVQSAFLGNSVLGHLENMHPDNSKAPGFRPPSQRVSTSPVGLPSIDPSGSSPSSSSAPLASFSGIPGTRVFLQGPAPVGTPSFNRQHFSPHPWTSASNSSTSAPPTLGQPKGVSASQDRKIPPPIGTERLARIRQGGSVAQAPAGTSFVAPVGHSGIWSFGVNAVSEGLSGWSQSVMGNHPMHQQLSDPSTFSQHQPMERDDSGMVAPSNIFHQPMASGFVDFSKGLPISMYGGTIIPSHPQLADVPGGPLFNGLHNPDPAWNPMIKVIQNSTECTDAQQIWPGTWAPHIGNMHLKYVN
UniProt P46937: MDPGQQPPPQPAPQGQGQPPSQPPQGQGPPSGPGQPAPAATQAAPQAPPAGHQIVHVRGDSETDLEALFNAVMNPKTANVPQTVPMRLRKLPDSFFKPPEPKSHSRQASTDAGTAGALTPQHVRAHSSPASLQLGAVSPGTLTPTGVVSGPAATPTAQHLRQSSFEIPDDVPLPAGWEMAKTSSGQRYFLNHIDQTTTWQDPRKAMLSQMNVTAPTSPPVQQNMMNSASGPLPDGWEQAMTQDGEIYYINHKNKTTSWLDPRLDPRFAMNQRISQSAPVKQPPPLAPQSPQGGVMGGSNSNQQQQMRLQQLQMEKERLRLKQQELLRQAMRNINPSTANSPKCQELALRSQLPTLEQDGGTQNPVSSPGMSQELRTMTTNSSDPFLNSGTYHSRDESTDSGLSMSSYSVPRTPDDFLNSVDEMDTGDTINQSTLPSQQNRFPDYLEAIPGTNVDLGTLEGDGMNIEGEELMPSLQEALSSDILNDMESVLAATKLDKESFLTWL

The text below walks through data of publication PMC8810793.

No constants are given. Whether binding was seen depends on the method and setting. Binding seen in cells or lysates may run through a third protein. Some entries that bind do so weakly or less than the wild type.

For the substance “Yes-associated protein 1 (YAP1) (from UniProt P46937 1-504)”, the binding result was “binds”.
